Assay results taken from publication PMC12176286.
These are yes or no findings as the source states them, for the method shown. Binding seen in cells or lysates may run through a third protein. Some binding calls cover weakened binding; strength is not graded here. For some assays here: Where a sequence is shown, tags or fusion partners need not be part of it. Each block holds one molecule with its values, some of them ahead of it.

Sequences of proteins named here, by UniProt entry; tags and fusion partners are left off. Residues count along the entry.
UniProt P29323, residues 19-1055: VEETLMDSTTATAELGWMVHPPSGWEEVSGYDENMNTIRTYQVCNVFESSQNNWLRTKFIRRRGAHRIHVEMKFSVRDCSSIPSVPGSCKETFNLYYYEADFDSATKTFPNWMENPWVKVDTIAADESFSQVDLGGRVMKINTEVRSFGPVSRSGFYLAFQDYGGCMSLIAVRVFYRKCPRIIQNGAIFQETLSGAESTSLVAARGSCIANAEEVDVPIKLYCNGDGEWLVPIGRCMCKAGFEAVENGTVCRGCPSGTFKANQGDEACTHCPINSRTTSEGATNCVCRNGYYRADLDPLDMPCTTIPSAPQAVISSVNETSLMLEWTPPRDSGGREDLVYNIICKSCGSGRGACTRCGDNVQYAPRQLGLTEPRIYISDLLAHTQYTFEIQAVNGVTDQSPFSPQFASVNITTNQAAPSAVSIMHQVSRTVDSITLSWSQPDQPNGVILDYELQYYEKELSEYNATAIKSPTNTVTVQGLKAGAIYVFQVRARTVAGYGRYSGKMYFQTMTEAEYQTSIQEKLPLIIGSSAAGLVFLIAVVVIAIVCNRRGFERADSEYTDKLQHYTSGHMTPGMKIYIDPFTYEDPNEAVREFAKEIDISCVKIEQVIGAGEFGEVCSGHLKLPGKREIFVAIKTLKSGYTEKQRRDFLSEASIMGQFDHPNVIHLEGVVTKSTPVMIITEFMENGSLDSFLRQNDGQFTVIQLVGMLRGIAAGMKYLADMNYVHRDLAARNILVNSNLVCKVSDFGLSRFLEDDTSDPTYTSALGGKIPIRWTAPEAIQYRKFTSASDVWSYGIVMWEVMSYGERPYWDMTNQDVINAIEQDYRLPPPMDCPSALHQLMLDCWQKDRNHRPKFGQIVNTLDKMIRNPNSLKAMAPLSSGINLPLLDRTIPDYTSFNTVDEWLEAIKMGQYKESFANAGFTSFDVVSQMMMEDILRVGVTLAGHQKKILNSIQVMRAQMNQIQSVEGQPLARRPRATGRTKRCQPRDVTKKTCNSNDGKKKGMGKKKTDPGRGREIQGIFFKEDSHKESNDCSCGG
UniProt P54756, residues 25-1037: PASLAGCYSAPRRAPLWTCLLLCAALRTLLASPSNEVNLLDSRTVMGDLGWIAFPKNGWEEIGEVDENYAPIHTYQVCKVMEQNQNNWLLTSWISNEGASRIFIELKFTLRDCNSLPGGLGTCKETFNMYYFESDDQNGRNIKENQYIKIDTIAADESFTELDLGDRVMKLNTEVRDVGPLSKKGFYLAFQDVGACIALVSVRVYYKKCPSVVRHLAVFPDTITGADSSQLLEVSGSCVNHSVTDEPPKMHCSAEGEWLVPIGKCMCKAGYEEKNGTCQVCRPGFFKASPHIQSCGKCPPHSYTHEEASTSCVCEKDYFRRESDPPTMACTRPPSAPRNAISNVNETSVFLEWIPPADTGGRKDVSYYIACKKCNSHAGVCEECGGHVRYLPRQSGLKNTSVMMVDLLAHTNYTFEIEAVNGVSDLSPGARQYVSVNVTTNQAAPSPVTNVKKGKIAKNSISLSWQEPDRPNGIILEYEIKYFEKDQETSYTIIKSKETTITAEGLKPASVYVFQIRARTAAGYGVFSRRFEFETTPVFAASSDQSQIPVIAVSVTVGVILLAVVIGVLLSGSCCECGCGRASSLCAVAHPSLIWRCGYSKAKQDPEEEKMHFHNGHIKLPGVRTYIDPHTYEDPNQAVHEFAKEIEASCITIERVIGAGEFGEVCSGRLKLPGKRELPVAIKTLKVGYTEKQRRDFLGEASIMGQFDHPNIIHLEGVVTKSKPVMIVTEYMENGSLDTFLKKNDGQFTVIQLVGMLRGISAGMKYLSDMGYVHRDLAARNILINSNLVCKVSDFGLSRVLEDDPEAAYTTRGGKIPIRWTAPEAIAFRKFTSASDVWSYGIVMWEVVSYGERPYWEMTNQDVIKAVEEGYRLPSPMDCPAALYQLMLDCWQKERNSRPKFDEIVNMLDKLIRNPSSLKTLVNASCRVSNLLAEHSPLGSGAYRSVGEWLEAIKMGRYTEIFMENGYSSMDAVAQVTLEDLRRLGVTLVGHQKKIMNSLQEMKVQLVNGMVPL

Key:
Dectin1-HA = molecular target: T1, Dectin1-HA (UniProt Q9BXN2); assay: co-IP; HEK293T cells co-transfected with two tagged constructs; lysis in 0.5% Triton X-100, 20 mM HEPES pH 7.4, 150 mM NaCl; lysates with anti-HA or anti-Flag antibody overnight at 4°C, protein A/G Sepharose beads 2 hours, four washes; Western blot
T1 sequence: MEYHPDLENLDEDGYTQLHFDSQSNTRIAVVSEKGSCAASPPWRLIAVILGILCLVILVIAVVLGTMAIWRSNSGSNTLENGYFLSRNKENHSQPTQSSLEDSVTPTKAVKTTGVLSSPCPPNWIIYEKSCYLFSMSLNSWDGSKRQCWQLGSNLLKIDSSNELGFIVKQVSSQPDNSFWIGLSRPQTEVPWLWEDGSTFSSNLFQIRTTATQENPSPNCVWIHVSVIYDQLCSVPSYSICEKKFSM

EPHB2-HA = EPHB2-HA (UniProt P29323); assay: as above
EPHA5-Flag [1] = molecular target: EPHA5-Flag (UniProt P54756); assay: as above
[2] = molecular target: WT EPHB2 (reconstituted in EPHB2-knockout THP-1 cells) (UniProt P29323); assay: co-IP; EPHB2-knockout THP-1 cells reconstituted with WT EPHB2; stimulated with Curdlan (100 µg/mL) or α-Mannan (100 µg/mL) for the indicated times; immunoprecipitated with an anti-Flag antibody; Western blot
[3] = molecular target: EPHA5-WT-Flag (reconstituted in EPHA5 knockdown THP-1 cells) (UniProt P54756); assay: co-IP; EPHA5 knockdown (EPHA5-g2) THP-1 cells reconstituted with EPHA5-WT-Flag; stimulated with Curdlan (100 µg/ml) or α-Mannan (100 µg/mL) for the indicated times; immunoprecipitated with an anti-Flag antibody; EPHA5 dimers and monomers on the Western blot
EPHA5-Flag [4] = molecular target: EPHA5-Flag (UniProt P54756); assay: co-IP; HEK293T cells cotransfected with EPHA5-Flag, EPHB2-HA and Dectin1-HA together; immunoprecipitated with an anti-Flag antibody; Western blot
EPHA5-HA = EPHA5-HA (UniProt P54756); assay: co-IP; HEK293T cells co-transfected with two tagged constructs; lysis in 0.5% Triton X-100, 20 mM HEPES pH 7.4, 150 mM NaCl; lysates with anti-HA or anti-Flag antibody overnight at 4°C, protein A/G Sepharose beads 2 hours, four washes; Western blot

Molecule: EPHA5-Flag (from UniProt P54756 25-1037) (receptor)
binding (Dectin1-HA): binds
binding (EPHB2-HA): binds
binding (EPHA5-Flag [1]): binds

Molecule: EPHA5 (in EPHB2-KO THP-1 cells reconstituted with EPHB2) (from UniProt P54756 25-1037) (receptor)
binding [2]: binds

B1: Dectin2-Flag (receptor, UniProt Q6EIG7 1-209)
chain: MMQEQQPQSTEKRGWLSLRLWSVAGISIALLSACFIVSCVVTYHFTYGETGKRLSELHSYHSSLTCFSEGTKVPAWGCCPASWKSFGSSCYFISSEEKVWSKSEQNCVEMGAHLVVFNTEAEQNFIVQQLNESFSYFLGLSDPQGNNNWQWIDKTPYEKNVRFWHLGEPNHSAEQCASIVFWKPTGWGWNDVICETRRNSICEMNKIYL
binding (EPHA5-HA): binds

B2: Dectin1-HA (receptor, UniProt Q9BXN2 1-247)
chain: T1 sequence
binding (EPHA5-Flag [4]): binds

The next lines start with the values.

binding [3]: binds
Molecule: EPHA5-WT-Flag (reconstituted in EPHA5 knockdown THP-1 cells) (from UniProt P54756 25-1037) (receptor)

binding (EPHA5-Flag [4]): binds
Molecule: EPHB2-HA (from UniProt P29323 19-1055) (receptor)
